Measured values reported in patent US12678511B2, “Peptide and use thereof” (Kansai Medical University Educational Corgoration, priority 2019, dated 2026).
Part of at least one peptide drawing is inferred or uncertain, most often the ends. Peptide text beside a SMILES is read from it. * marks the point of attachment. 5FAM = O=C1OC2(c3ccc(O)cc3Oc3cc(O)ccc32)c2ccc(C(=O)*)cc21

Tested on: coculture of pancreatic cancer cells (BxPC3 cells, Capan-2 cells) and hMSC
Assay: Absorption of [FAM]-tandem MSCPP106 in cocultures of pancreatic cancer cells and hMSC
Type: cell-based, human
Conditions: cocultures of BxPC3 or Capan-2 cells with hMSC; 4 μM, four hours, FIG. 5A, 5B

CC(C)C[C@H](NC(=O)[C@H](Cc1c[nH]cn1)NC(=O)[C@H](CCCNC(=N)N)NC(=O)[C@H](Cc1ccccc1)NC(=O)[C@H](CC(C)C)NC(=O)[C@H](CCC(=O)O)NC(=O)[C@H](C)NC(=O)[C@H](CS)NC(=O)[C@H](CCCCN)NC(=O)CNC(=O)[C@H](CC(C)C)NC(=O)[C@H](Cc1c[nH]cn1)NC(=O)[C@H](CCCNC(=N)N)NC(=O)[C@H](Cc1ccccc1)NC(=O)[C@H](CC(C)C)NC(=O)[C@H](CCC(=O)O)NC(=O)[C@H](C)NC(=O)[C@H](CS)NC(=O)[C@H](CCCCN)NC(=O)c1ccc2c(c1)C(=O)OC21c2ccc(O)cc2Oc2cc(O)ccc21)C(=O)O [[FAM]-tandem MSCPP106] (5FAM-KCAELFRHLGKCAELFRHL-OH)
absorption into the hMSC in coculture: selectively absorbed into only the hMSC | absorption into the pancreatic cancer cells in coculture: not absorbed
